Test results reported in PubChem BioAssay AID330 (DTP/NCI, 2004).
The list shows only some results of the screen, not a fair sample: it gathers tests that were run many times, whatever their T/C, doses with no T/C, and many T/C values between a quarter and a half above the control. Further doses and runs are listed elsewhere. T/C is the treated group as % of the vehicle group. Some entries give survivors of the animals treated and no T/C: the source files T/C as zero there, which appears to mark a toxic dose or a test without result, not a measured value. Some doses without a T/C left all or most animals alive at the check, yet need not have been tolerated: survival well below the control is almost never listed, so the zero probably covers shortened survival too. Counts of survivors are from the toxicity check (mostly the fifth day) where no day follows; animals may have died later. Schedule codes are those of the source, read here as Q, the interval in days (D) or hours (H), X, the number of doses. Additions like (4×) count equal records among those shown. Some entries were tested several times; the values are given in rising order. Where survival is the endpoint, this PubChem deposit counts one and a half times the control or more as active, and values a quarter to a half above the control carry no call in these data; other NCI protocols may use other cut-offs. Some T/C values are followed by the survivors on the day toxicity was checked, most often the fifth; where none is given, no animal had died by that day.

Test system: P388 leukemia ip, CD2F1 mice, survival T/C
Assay: NCI In Vivo Anticancer Drug Screen. Data for tumor model P388 Leukemia (intraperitoneal) in CD2F1 (CDF1) mice
Details: T/C endpoint: median survival time, higher T/C = longer survival
[1] = dose: 240.0 mg/kg/injection, schedule: Q01DX005 (ip), vehicle: saline with Tween-80
[2] = dose: 100.0 mg/kg/injection, schedule: Q01DX009 (ip), vehicle: saline with Tween-80
[3] = dose: 200.0 mg/kg/injection, schedule: Q01DX009 (ip), vehicle: saline
[4] = dose: 200.0 mg/kg/injection, schedule: Q01DX005 (ip), vehicle: saline with Tween-80
[5] = dose: 120.0 mg/kg/injection, schedule: Q01DX005 (ip), vehicle: saline with Tween-80
[6] = dose: 100.0 mg/kg/injection, schedule: Q04DX003 (ip), vehicle: saline with Tween-80
[7] = dose: 100.0 mg/kg/injection, schedule: Q01DX005 (ip), vehicle: saline
[8] = dose: 200.0 mg/kg/injection, schedule: Q01DX005 (ip), vehicle: saline
[9] = dose: 200.0 mg/kg/injection, schedule: Q01DX009 (ip), vehicle: Klucel (hydroxypropylcellulose) (HPC)
[10] = dose: 200.0 mg/kg/injection, schedule: Q01DX009 (ip), vehicle: saline with Tween-80
[11] = dose: 60.0 mg/kg/injection, schedule: Q01DX005 (ip), vehicle: saline with Tween-80
[12] = dose: 50.0 mg/kg/injection, schedule: Q01DX009 (ip), vehicle: saline with Tween-80
[13] = dose: 400.0 mg/kg/injection, schedule: Q01DX009 (ip), vehicle: saline with Tween-80
[14] = dose: 400.0 mg/kg/injection, schedule: Q04DX003 (ip), vehicle: saline with Tween-80

`C[n+]1c(-c2cccc(OCCCCCCCOc3cccc(-c4c5cc(N)ccc5c5ccc(N)cc5[n+]4C)c3)c2)c2cc(N)ccc2c2ccc(N)cc21` was tested, and the T/C (dose: 0.1 mg/kg/injection, schedule: Q01DX009 (ip), vehicle: water) was 133 % of control, the T/C (dose: 0.2 mg/kg/injection, schedule: Q01DX009 (ip), vehicle: water) was 140 % of control and the survivor count (dose: 0.4 mg/kg/injection, schedule: Q01DX009 (ip), vehicle: water) was 6 of 6. The survivor count (dose: 0.8 mg/kg/injection, schedule: Q01DX009 (ip), vehicle: water) was 6 of 6, the survivor count (dose: 1.56 mg/kg/injection, schedule: Q01DX009 (ip), vehicle: water) was 5 of 6 and the survivor count (dose: 3.13 mg/kg/injection, schedule: Q01DX009 (ip), vehicle: water) was 0 of 6. For the same compound, the survivor count (dose: 6.25 mg/kg/injection, schedule: Q01DX009 (ip), vehicle: water) was 0 of 6, the survivor count (dose: 12.5 mg/kg/injection, schedule: Q01DX009 (ip), vehicle: water) was 0 of 6 and the survivor count (dose: 25.0 mg/kg/injection, schedule: Q01DX009 (ip), vehicle: water) was 0 of 6. The survivor count (dose: 400.0 micrograms/kg/injection, schedule: Q01DX009 (ip), vehicle: water) was 6 of 6.

In the case of `Fc1ccc(NC(=S)SCc2ccc3c(c2)OCO3)cc1F`, the survivor count (dose: 400.0 mg/kg/injection, schedule: Q01DX009 (ip), vehicle: Klucel (hydroxypropylcellulose) (HPC)) is reported as 2 of 6.

For `CC1(CO)CCCC1NCCNC1CCCC1(C)CO` (stereo unspecified), the survivor count [1] was 0 of 6.

For `COc1ccc(CSc2ncnc3nc[nH]c23)cc1`, the survivor count [2] was 6 of 6.

With `CC1=CSC2=NCCCCN12` the survivor count (dose: 50.0 mg/kg/injection, schedule: Q01DX009 (ip), vehicle: saline) was 6 of 6, the survivor count (dose: 100.0 mg/kg/injection, schedule: Q01DX009 (ip), vehicle: saline) was 6 of 6 and the survivor count [3] was 0 of 6.

In the case of `COc1cc(OC)c2c(c1)OC(=O)C(C(C)=O)C2` (stereo unspecified), the survivor count [4] is reported as 0 of 6.

With `C/C(=N\NC(=S)N1CCC(C2CCN(C(=S)N/N=C(\C)c3ccccn3)CC2)CC1)c1ccccn1` the T/C [4] was 126 % of control.

For `CCCCCCCCCCCCCCC(Br)C(=O)O` (stereo unspecified), the survivor count [3] was 6 of 6.

With `CN=C(N)NN=C(c1cccc(F)c1)c1cccc(F)c1` the survivor count (dose: 200.0 mg/kg/injection, schedule: Q04DX002 (ip), vehicle: saline with Tween-80) was 1 of 6 and the survivor count (dose: 400.0 mg/kg/injection, schedule: Q04DX002 (ip), vehicle: saline with Tween-80) was 1 of 6.

`Cc1cc(NCCCCNCCCNc2cc(C)nc3cc(N)ccc23)c2ccc(N)cc2n1` was tested, and the T/C (dose: 6.25 mg/kg/injection, schedule: Q01DX009 (ip), vehicle: other) was 132 % of control, the survivor count (dose: 50.0 mg/kg/injection, schedule: Q01DX009 (ip), vehicle: other) was 0 of 6 and the survivor count (dose: 100.0 mg/kg/injection, schedule: Q01DX009 (ip), vehicle: other) was 0 of 6.

With `CC(=O)/C(=C\c1cccc(Cl)c1)C(=O)CCN(C)C` the T/C [5] was 125 % of control, the T/C [1] was 132 % of control [5 of 6 alive] and the survivor count [1] was 2 of 6. For the same compound, the survivor count (dose: 480.0 mg/kg/injection, schedule: Q01DX005 (ip), vehicle: saline with Tween-80) was 0 of 6.

`C=CCCN=C(SC)SC` was tested, and the survivor count [1] was 1 of 6.

With `CCCCn1cnc2c(=S)nc(N)[nH]c21` the T/C [6] was 127 % of control, the survivor count [6] was 6 of 6 and the T/C (dose: 200.0 mg/kg/injection, schedule: Q04DX003 (ip), vehicle: saline with Tween-80) was 127 % of control.

In the case of `CC1C(C(=O)NCCc2ccccc2)CC2CCCCN21` (stereo unspecified), the survivor count [1] is reported as 0 of 6.

With `CCC(C)C1=NCCCN1` (stereo unspecified) the survivor count (dose: 200.0 mg/kg/injection, schedule: Q01DX001 (ip), vehicle: saline) was 2 of 6 and the survivor count (dose: 400.0 mg/kg/injection, schedule: Q01DX001 (ip), vehicle: saline) was 0 of 6.

For `C#CCN1CCN(C(=S)N/N=C(\C)c2ccccn2)CC1`, the T/C (dose: 50.0 mg/kg/injection, schedule: Q01DX005 (ip), vehicle: saline with Tween-80) was 127 % of control, the survivor count (dose: 100.0 mg/kg/injection, schedule: Q01DX005 (ip), vehicle: saline with Tween-80) was 0 of 6 and the survivor count [4] was 0 of 6.

`COc1cc2c(cc1OC)C13CCN4CC5=CCOC6CC(=O)N2C1C6C5C3C4` (stereo unspecified) (tested in a mixture with another compound) was tested, and the survivor count [7] was 1 of 5 and the survivor count [8] was 0 of 5.

`COC1OC(CS[As](C)C)C(O)C(O)C1O` (stereo unspecified) was tested, and the survivor count (dose: 100.0 mg/kg/injection, schedule: Q01DX009 (ip), vehicle: Klucel (hydroxypropylcellulose) (HPC)) was 3 of 6 and the survivor count [9] was 0 of 6.

`O=C1NC(c2cccc3c2OCO3)N=C2Oc3ccccc3C=C12` (stereo unspecified) was tested, and the T/C [10] was 136 % of control.

For `O=C(NC(Cc1ccc(O)cc1)C(=O)N=Nc1c(O)[nH]c2ccccc12)c1ccccc1` (stereo unspecified), the survivor count [5] was 6 of 6.

In the case of `O=C(Nc1ccc(C2=NCCN2)cc1)Nc1cccc(NC(=O)Nc2cccc(C3=NCCN3)c2)c1`, the T/C (dose: 3.0 mg/kg/injection, schedule: Q04DX003 (ip), vehicle: saline with Tween-80) is reported as 127 % of control, the T/C (dose: 3.13 mg/kg/injection, schedule: Q04DX003 (ip), vehicle: saline with Tween-80) is reported as 131 % of control and the T/C (dose: 6.25 mg/kg/injection, schedule: Q04DX003 (ip), vehicle: saline with Tween-80) is reported as 131 % of control. The survivor count (dose: 200.0 mg/kg/injection, schedule: Q04DX003 (ip), vehicle: saline) was 0 of 6 and the survivor count (dose: 400.0 mg/kg/injection, schedule: Q04DX003 (ip), vehicle: saline) was 0 of 6.

For `C#CCSC1=NS(=O)(=O)c2ccccc21`, the survivor count [11] was 4 of 6, the survivor count [5] was 0 of 6 and 6 of 6 and the survivor count [1] was 0 of 6.

In the case of `COC(=O)Nc1ccc(Cc2ccc(NC(=O)OC)cc2)cc1`, the T/C [12] is reported as 98, 110 (2×), 111, 118 % of control, the T/C [2] is reported as 100, 104, 107, 133, 171 % of control and the T/C [10] is reported as 144, 200, 212 % of control. For the same compound, the survivor count [10] was 3 of 6 and 6 of 6, the T/C [13] was 87 % of control and the survivor count [13] was 6 of 6 (2×).

With `Cc1cccc(C(C)C)c1NC(=O)C(=O)C(C#N)c1ccc(CC#N)cc1` (stereo unspecified) the survivor count [1] was 0 of 6.

For `C[N+](C)(C)/N=C(/c1ccccc1)C1CCCCC1`, the survivor count (dose: 100.0 mg/kg/injection, schedule: Q01DX001 (ip), vehicle: Klucel (hydroxypropylcellulose) (HPC)) was 0 of 6, the survivor count (dose: 200.0 mg/kg/injection, schedule: Q01DX001 (ip), vehicle: Klucel (hydroxypropylcellulose) (HPC)) was 0 of 6 and the survivor count (dose: 400.0 mg/kg/injection, schedule: Q01DX001 (ip), vehicle: Klucel (hydroxypropylcellulose) (HPC)) was 0 of 6.

In the case of `CCOc1c(-c2ccccc2)c(=O)n2c3ccccc3n(CC)c2c1C#N`, the survivor count [11] is reported as 6 of 6 and the survivor count [5] is reported as 6 of 6.

With `CC(C)(C)C(=O)CC(=O)C(C)(C)C.[Cu]` the survivor count [14] was 1 of 6.

`CCCCCCCCCCCCCCCCCCNCCC#N` was tested, and the survivor count (dose: 25.0 mg/kg/injection, schedule: Q01DX009 (ip), vehicle: Klucel (hydroxypropylcellulose) (HPC)) was 6 of 6 and the survivor count [9] was 6 of 6.

For `CC1CN=C(Cc2ccc(NC(=O)c3ccc(C(=O)Nc4ccc(CC5=NCC(C)N5)cc4)cc3)cc2)N1` (stereo unspecified), the survivor count (dose: 25.0 mg/kg/injection, schedule: Q01DX005 (ip), vehicle: saline) was 0 of 6, the survivor count (dose: 50.0 mg/kg/injection, schedule: Q01DX005 (ip), vehicle: saline) was 0 of 6 and the survivor count [7] was 0 of 6. For the same compound, the survivor count [8] was 0 of 6.

For `O=C1Cc2ccccc2C(=O)N1`, the survivor count [14] was 3 of 6.

With `COc1ccc(C(=O)[Se][Se]C(=O)c2ccc(OC)cc2)cc1` the survivor count (dose: 25.0 mg/kg/injection, schedule: Q01DX009 (ip), vehicle: saline with Tween-80) was 6 of 6, the survivor count [12] was 0 of 6 and the survivor count [2] was 0 of 6. The survivor count [10] was 0 of 6.
